# Substitutions are numbered along the chain they refer to. These are yes or no findings as the source states them, for the method shown. Some entries that bind do so weakly or less than the wild type.
# Chains of the proteins cited; added tags and fusions are not shown. Lines headed by an entry give the natural chain unless they say otherwise; changes in a name come on top.
# UniProt P43630: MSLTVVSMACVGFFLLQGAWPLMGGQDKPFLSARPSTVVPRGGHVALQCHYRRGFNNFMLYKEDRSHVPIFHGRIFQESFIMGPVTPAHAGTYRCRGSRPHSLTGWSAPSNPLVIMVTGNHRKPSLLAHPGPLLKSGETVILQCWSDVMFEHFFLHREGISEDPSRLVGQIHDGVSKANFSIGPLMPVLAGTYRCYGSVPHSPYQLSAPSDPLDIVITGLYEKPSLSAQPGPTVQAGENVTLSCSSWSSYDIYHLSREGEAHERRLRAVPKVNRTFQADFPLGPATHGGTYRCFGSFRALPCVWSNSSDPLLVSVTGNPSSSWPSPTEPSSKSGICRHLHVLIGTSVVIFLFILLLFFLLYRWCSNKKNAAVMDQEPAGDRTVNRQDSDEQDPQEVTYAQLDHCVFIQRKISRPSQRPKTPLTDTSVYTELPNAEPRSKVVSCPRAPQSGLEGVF
# B1: 10G5-H5L5 (antibody, human IgG1, V domains shown)
# VH: QVQLVQSGAELARPGASVKVSCKASGYTFTSYTMHWVRQAPGQGLEWIGYINPSSGYTENNRKFKDKTTLTADKSTSTAYMELSSLRSEDTAVYYCARLGKGLLPPFDYWGQGTTVTVSS
# VL: DIQMTQSPSSLSASVGETVTITCRASENIYSNLAWYQQKQGKAPQLLVYAATNLADGVPSRFSGSGSGTQYTLTINSLQPEDFATYYCQHFWGTPYTFGGGTKLEIK
# B2: 10G5-H5L2 (antibody, human IgG1, V domains shown)
# VH: B1 VH
# VL: B1 VL with E17D, T18R, Q40P, Q70D, N76S
# B3: 10G5-H3L5 (antibody, human IgG1, V domains shown)
# VH: B1 VH with L11V, A12K, R13K, L70M, K74T
# VL: B1 VL
# B4: 10G5-H3L4 (antibody, human IgG1, V domains shown)
# VH: B1 VH with L11V, A12K, R13K, L70M, K74T
# VL: B1 VL with E17D, T18R
# B5: 10G5-H4L4 (antibody, human IgG1, V domains shown)
# VH: B1 VH with V5Q, L11V, A12K, R13K, V20M, K74T, V116L
# VL: B1 VL with E17D, T18R
# B6: 10G5-H6L3 (antibody, human IgG1, V domains shown)
# VH: B1 VH with V5Q, L11V, A12K, R13K, V20M, R38K, A40R, V116L
# VL: B1 VL with E17D, T18R, Q40P, N76S
# B7: 10G5-H3L3 (antibody, human IgG1, V domains shown)
# VH: B1 VH with L11V, A12K, R13K, L70M, K74T
# VL: B1 VL with E17D, T18R, Q40P, N76S
# B8: 10G5-H4L5 (antibody, human IgG1, V domains shown)
# VH: B1 VH with V5Q, L11V, A12K, R13K, V20M, K74T, V116L
# VL: B1 VL
# B9: 10G5-H4L2 (antibody, human IgG1, V domains shown)
# VH: B1 VH with V5Q, L11V, A12K, R13K, V20M, K74T, V116L
# VL: B1 VL with E17D, T18R, Q40P, Q70D, N76S
# B10: 10G5-H4L3 (antibody, human IgG1, V domains shown)
# VH: B1 VH with V5Q, L11V, A12K, R13K, V20M, K74T, V116L
# VL: B1 VL with E17D, T18R, Q40P, N76S
# B11: 10G5-H6L5 (antibody, human IgG1, V domains shown)
# VH: B1 VH with V5Q, L11V, A12K, R13K, V20M, R38K, A40R, V116L
# VL: B1 VL
# B12: 10G5-H6L4 (antibody, human IgG1, V domains shown)
# VH: B1 VH with V5Q, L11V, A12K, R13K, V20M, R38K, A40R, V116L
# VL: B1 VL with E17D, T18R
# B13: 10G5-H6L2 (antibody, human IgG1, V domains shown)
# VH: B1 VH with V5Q, L11V, A12K, R13K, V20M, R38K, A40R, V116L
# VL: B1 VL with E17D, T18R, Q40P, Q70D, N76S
# Molecular target: KIR3DL2 (as expressed on RAJI-KIR3DL2 cells) (human) (UniProt P43630)
# Assay: binding assay of Example 1 at two mAb concentrations, compared with chimeric 10G5
row,binding,Binder
1,binds,B1
2,binds,B2
3,binds,B3
4,binds,B4
5,binds,B5
6,binds,B6
7,binds,B7
8,binds,B8
9,binds,B9
10,binds,B10
11,binds,B11
12,binds,B12
13,binds,B13

# Molecular target: KIR3DL2 (as expressed on RAJI-KIR3DL2 cells) (human) (UniProt P43630)
# Assay: flow cytometry titration on RAJI-KIR3DL2 cells, goat anti-human-PE detection
row,binding,Binder
1,binds,B1
2,binds,B2
3,binds,B3
4,binds,B4
5,binds,B5
6,binds,B6
7,binds,B7
8,binds,B8
9,binds,B9
10,binds,B10
11,binds,B11
12,binds,B12
13,binds,B13

# — US20170158763A1
